{"sequences": {"note": "Sequences of proteins named here, by UniProt entry; tags and fusion partners are left off.", "UniProt P99999": "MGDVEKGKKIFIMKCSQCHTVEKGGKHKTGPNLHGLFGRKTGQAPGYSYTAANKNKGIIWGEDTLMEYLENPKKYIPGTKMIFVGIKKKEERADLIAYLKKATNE", "UniProt O15392": "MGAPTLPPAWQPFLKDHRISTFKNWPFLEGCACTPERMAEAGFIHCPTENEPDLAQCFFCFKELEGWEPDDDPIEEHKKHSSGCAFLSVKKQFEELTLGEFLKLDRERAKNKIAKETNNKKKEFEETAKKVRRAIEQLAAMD"}, "source": "paper doi:10.1101/663013", "key": {"cytochrome C": {"target": "cytochrome C (UniProt P99999)", "assay": "single-cell plasmonic immunosandwich assay"}, "[1]": {"target": "cytochrome C (human (endogenous in HepG-2)) (UniProt P99999)", "assay": "single-cell plasmonic immunosandwich assay"}}, "note": "Results are given in words; binding and its absence hold for the method and conditions named. Some binding calls cover weakened binding; strength is not graded here.", "data": [{"substance": "survivin (from UniProt O15392 1-142)", "values": [{"measurement": "binding", "setting": "cytochrome C", "value": "binds"}, {"measurement": "binding", "setting": "[1]", "value": "binds"}]}]}
